In PubChem BioAssay AID504467 (National Center for Advancing Translational Sciences (NCATS), 2011):
About 7,700 (2.3%) of roughly 330,000 compounds were called active. The shares of active, inactive and inconclusive entries below differ from those in the screen. The call rests on the fitted dose curve; in most records, active means well fitted inhibition curve with a large enough effect; inconclusive means small, poorly fitted or top-dose-only effect, or effect the other way; inactive means flat fitted curve, though single readings scatter. Potencies of inconclusive entries are doubtful fits and often do not repeat.

Experiment: qHTS screen for small molecules that inhibit ELG1-dependent DNA repair in human embryonic kidney (HEK293T) cells expressing luciferase-tagged ELG1; further: nearly all actives have a fitted effect of over 55% in size
Settings: HEK293T ELG1-luciferase reporter, luminescence, 16 h, DNA damage induced by 5-fluorouridine; activity change, negative = inhibition: at 46.1 µM (top of the series)
In short: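 5-Fluorouridine DNA damage + compound/DMSO, 2,000 cells/well, 16 h, 37 °C/5% CO2. ONE-Glo, 30 min RT, luminescence. Readout = decrease in reporter signal.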
On the % scale 0 is the no-effect control and ±100 the full control effect; potency means the concentration at half of the fitted maximal effect.

SMILES | Potency | activity change, negative = inhibition
Cc1ccc(N2C(=O)N(CC(=O)Nc3ccccc3C)C(=O)C2C)cc1 (stereo unspecified) | inconclusive: 32.6 µM [activator, partial curve, poor fit] | –
COC(=O)C(=C/C=C/c1ccco1)C(=O)OC | inconclusive: 25.9 µM [activator, partial curve, poor fit] | –
CCN(CC)C(=O)/C(NC(=O)c1ccccc1)=C(/Sc1ncccn1)c1ccccc1 | inconclusive: 16.4 µM [inhibitor, partial curve, poor fit] | –
Cc1ccc(C(=O)Nc2ccc(NC(=O)c3cccs3)cc2)c(C)c1 | inconclusive: 23.1 µM [activator, single point] | –
CCOC(=O)c1[nH]c(C)c(/C(O)=C2\C(=O)C(=O)N(CCCN3CCOCC3)C2c2cccs2)c1C (stereo unspecified) | – | inactive: 5.91%
Cc1nc(OCC(=O)c2ccc(Cl)cc2)c(C#N)c2c1COC(C)(C)C2 | inconclusive: 25.9 µM [inhibitor, single point] | –
COc1ccc(/C=C2\SC(=S)N(CCCC(=O)Nc3ccccc3C(=O)O)C2=O)cc1OC | – | inactive: -9.47%
CC(=O)NC12CC3CC(C1)CC(C(=O)OCC(=O)Nc1ncc(Cl)cc1Cl)(C3)C2 | inconclusive: 25.9 µM [inhibitor, partial curve, poor fit] | –
Cc1ccc(C(=O)/C=C/c2ccc(Br)cc2)o1 | inconclusive: 20.6 µM [activator, single point] | –
Cc1cc2c3c(c1)C(C)(c1ccccc1)CC(C)(C)N3C(=O)C21C(C#N)=C(N)OC2=C1C(=O)CC(C)(C)C2 (stereo unspecified) | inconclusive: 23.1 µM [inhibitor, single point] | –
CC(CC(=O)Nc1nccs1)c1ccccc1 (stereo unspecified) | inconclusive: 0.366 µM [activator, partial curve, poor fit] | –
O=C(CCn1c(=O)c2cccn2c2ccc(F)cc21)NCCc1ccccc1 | inconclusive: 29.1 µM [inhibitor, partial curve, poor fit] | –
CCN(CC)C(=O)[C@H]1CC(CC(=O)NCCCN(C)C)C(=O)N2CCc3c([nH]c4ccc(OC)cc34)[C@]12C (stereo partly specified) | inconclusive: 20.6 µM [activator, single point] | –
Cc1ccc(C)c(NC(=S)NNC(=S)Nc2ccc(C(C)C)cc2)c1 | inconclusive: 6.51 µM [inhibitor, partial curve] | –
Cn1nc([N+](=O)[O-])nc1Sc1nnc(-c2ccccc2)o1 | inconclusive: 23.1 µM [inhibitor, partial curve, poor fit] | –
C/C(=N\NC(=O)C(C)Oc1ccc([N+](=O)[O-])cc1)c1ccccn1 (stereo unspecified) | inconclusive: 6.51 µM [activator, single point] | –
COc1ccc(N(C)S(=O)(=O)c2ccc3c(c2)CCN3C(=O)C2CC2)c(OC)c1 | – | inactive: -23.3%
COc1ccc2[nH]c(=O)c(CN(c3ccc(C)c(C)c3)S(C)(=O)=O)cc2c1 | inconclusive: 29.1 µM [inhibitor, single point] | –
Cn1cc(Br)c(C(=O)Nc2ncc(Br)s2)n1 | inconclusive: 2.91 µM [activator, full curve] | –
O=C(CCc1nc2ccccc2c(=O)[nH]1)Nc1cc(C(F)(F)F)ccc1N1CCOCC1 | inconclusive: 20.6 µM [inhibitor, partial curve, poor fit] | –
COc1ccc(S(=O)(=O)NCC(=O)N(CC(=O)NCC2CCCO2)Cc2ccccc2)cc1 (stereo unspecified) | – | inactive: -5.61%
Cn1c(C(=O)N2CCc3ccccc3C2)cc2c(=O)n3ccccc3nc21 | inconclusive: 16.4 µM [activator, partial curve, poor fit] | –

Some of the entries so far, with tabs:
SMILES	Potency	activity change, negative = inhibition
CCN(CC)C(=O)/C(NC(=O)c1ccccc1)=C(/Sc1ncccn1)c1ccccc1	inconclusive: 16.4 µM [inhibitor, partial curve, poor fit]	–
CC(CC(=O)Nc1nccs1)c1ccccc1 (stereo unspecified)	inconclusive: 0.366 µM [activator, partial curve, poor fit]	–
Cn1nc([N+](=O)[O-])nc1Sc1nnc(-c2ccccc2)o1	inconclusive: 23.1 µM [inhibitor, partial curve, poor fit]	–
C/C(=N\NC(=O)C(C)Oc1ccc([N+](=O)[O-])cc1)c1ccccn1 (stereo unspecified)	inconclusive: 6.51 µM [activator, single point]	–
COc1ccc2[nH]c(=O)c(CN(c3ccc(C)c(C)c3)S(C)(=O)=O)cc2c1	inconclusive: 29.1 µM [inhibitor, single point]	–

Additional entries.

SMILES | Potency | activity change, negative = inhibition
Cc1ccc(-n2nc(C)c3c(C)cc(=O)[nH]c32)cc1 | inconclusive: 20.6 µM [activator, single point] | –
COc1cc(/C=N\NC(=O)c2ccc(Cl)cc2)ccc1Oc1ccc([N+](=O)[O-])cn1 | inconclusive: 18.3 µM [inhibitor, single point] | –
COc1cccc(NC(=O)CCCn2c(=S)[nH]c3ccccc3c2=O)c1 | inconclusive: 20.6 µM [inhibitor, partial curve, poor fit] | –
Cc1ccc(-c2cc(-c3ccco3)c3c(N)c(C(=O)NN)oc3n2)cc1 | active: 13 µM | –
Clc1ccc(C2=NNC(=NCc3ccc4c(c3)OCO4)SC2)cc1 | inconclusive: 29.1 µM [inhibitor, partial curve, poor fit] | –
CCN(CC)c1ccc(C2Nc3cccc4cccc(c34)N2)c(O)c1 | inconclusive: 16.4 µM [activator, single point] | –
O=C(O)c1ccc2oc(SCC(=O)N3CCCCC3)nc2c1 | inconclusive: 7.31 µM [activator, partial curve] | –
CCc1nnc(NS(=O)(=O)c2ccc(NC(=S)NC(=O)/C=C/c3ccccc3)cc2)s1 | inconclusive: 14.6 µM [activator, partial curve, poor fit] | –
Cc1ccc(C(=O)c2nocc2C(=O)c2cccs2)cc1 | inconclusive: 23.1 µM [activator, partial curve, poor fit] | –
Cn1cc(CCNC(=O)CC2C(=O)NCCN2Cc2cccc(Oc3ccccc3)c2)cn1 (stereo unspecified) | – | inactive: 0.204%
Cc1cccc(NC(=S)NCc2cccs2)c1C | – | inactive: -8.24%
COc1ccc(OC(=O)NCCc2ccccc2)cc1 | inconclusive: 14.6 µM [activator, partial curve] | –
COc1cccc(CSc2nc3ccccc3[nH]2)c1 | inconclusive: 3.66 µM [activator, full curve] | –
COc1ccccc1CNC(=O)C1CCC(CNc2c(N3CCOCC3)c(=O)c2=O)CC1 (stereo unspecified) | inconclusive: 20.6 µM [activator, partial curve, poor fit] | –
Fc1cccc(Cn2ccc(-c3ccc4c(c3)OCO4)n2)c1 | inconclusive: 16.4 µM [activator, partial curve] | –
CC1CCc2c(sc(NC(=O)C3=COCCO3)c2C(N)=O)C1 (stereo unspecified) | inconclusive: 1.83 µM [activator, full curve] | –
Cc1c(C)c2c(OCC(=O)O)cc3c(c2oc1=O)CCC(C)(C)O3 | – | inactive: -0.187%
O=C(CN1CCOCC1)Nc1ccc(N2CCN(c3ccccc3)CC2)c(F)c1 | inconclusive: 18.3 µM [inhibitor, single point] | –
Cc1oc(/C=N/NC(=O)CC2(C)OCCO2)cc1Br | inconclusive: 29.1 µM [activator, partial curve, poor fit] | –
COc1ccc(OCCCC(=O)Nc2nc(-c3ccccn3)cs2)cc1 | inconclusive: 18.3 µM [inhibitor, single point] | –
COC(=O)c1ccc(-c2ccco2)n1Cc1cc(C)ccc1C | inconclusive: 32.6 µM [activator, partial curve, poor fit] | –
O=C(NCc1ccncc1)c1cc(-c2ccc(Cl)cc2)oc1C(F)(F)F | inconclusive: 7.3 µM [inhibitor, partial curve] | –

SMILES | Potency | activity change, negative = inhibition
O=C(CCN1C(=O)c2cccc3cccc(c23)C1=O)Nc1ccon1 | – | inactive: 13.2%
CN(C)CC(c1ccccc1)c1ccccc1 | inconclusive: 29.1 µM [activator, single point] | –
Oc1cc(Nc2ccncc2)cc2cccnc12 | – | inactive: 7.02%
CCOC(=O)N1CCC(NC(=O)c2ccc3c(c2)N(Cc2ccccc2)CCS3)CC1 | active: 14.6 µM | –
CCOC(=O)C(=CNc1ccc(C(F)(F)F)cc1)C(=O)OCC | – | inactive: -15.9%
O=C(COc1ccc(Cl)cc1Br)OCC(=O)c1ccc[nH]1 | inconclusive: 8.2 µM [activator, single point] | –
Cn1c(=O)n(C)c2cc(N3CCOCC3)c(NC(=O)c3cccc(Cl)c3)cc21 | – | inactive: 11.6%
O=C1CN(C(=O)COc2ccc(Br)cc2F)c2ccccc2N1 | – | inactive: -5.85%
CCCCC(C(=O)N/N=C/c1ccccn1)C(=O)N/N=C/c1ccccn1 | inconclusive: 18.3 µM [inhibitor, single point] | –
COc1cc(OC)cc(C(=O)N[C@H](C(=O)NCc2ccccc2)C(C)C)c1 | – | inactive: 6.84%
Cc1cccc(C(=O)NCC(=O)N2CCCCCCC2)c1 | inconclusive: 25.1 µM [activator, single point] | –
COc1ccc(S(=O)(=O)N2CCOCC2)cc1NC(=O)c1cc2ccccc2o1 | inconclusive: 20.6 µM [inhibitor, single point] | –
O=C(/C=C/c1ccccc1Cl)c1cccnc1 | inconclusive: 29.1 µM [activator, single point] | –
c1ccc(Cn2nnc3c(N4CCc5ccccc5C4)ncnc32)cc1 | inconclusive: 18.4 µM [inhibitor, single point] | –
CC(C)CSc1ccc(S(=O)(=O)NCC(=O)O)cc1[N+](=O)[O-] | – | inactive: 15.4%
Cc1ccccc1C(=O)N/N=C/c1ccsc1C | inconclusive: 13 µM [activator, partial curve] | –
COc1cccc(C(=O)N2CCC(CCC(=O)Nc3cccc(C)c3)CC2)c1 | – | inactive: 2.12%
Cc1cccc(-c2ccc(C=Nc3c(C)n(C)n(-c4ccccc4)c3=O)o2)c1 | – | inactive: 5.52%
CC1CCN(C(=S)NC(=O)c2ccc(F)cc2)CC1 | – | inactive: 11.4%
C#CCOCCOCCOCCNc1nc(N2CCN(C(=O)Cn3cc(CCCN=C(N)N)nn3)CC2)nc(N2CCN(C(=O)[C@H]([C@@H](C)CC)n3cc(CCCCN)nn3)CC2)n1 | inconclusive: 11.2 µM [activator, single point] | –
CCN(CC)S(=O)(=O)c1cccc(C(=O)NC2CCCCC2)c1 | inconclusive: 4.11 µM [activator, partial curve, poor fit] | –
CCCC(c1nnnn1Cc1ccc(OC)cc1)N1CCN(c2ccccc2OC)CC1 (stereo unspecified) | inconclusive: 29.1 µM [inhibitor, single point] | –
